{
  "source": "PubChem BioAssay AID493014",
  "about": "(National Center for Advancing Translational Sciences (NCATS), 2011)",
  "note": "This is one part of the list. The main result of the screen is listed elsewhere. These columns were measured beside it and carry no call. Most of these compounds were active or inconclusive in the main read-out, so they are no random draw. The note in brackets gives the kind of curve behind each potency; many fits are weak.",
  "data": [
    {"assay": "qHTS Assay to Find Inhibitors of Chronic Active B-Cell Receptor Signaling", "settings": "ABC-DLBCL IkBa-CBG/CBR reporter, luminescence ratio (green luciferase fused to IkBa over red control in TMD8 lymphoma cells), 4 h; measured here: CBR red luminescence, cell number", "outline": "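TMD8 ABC-DLBCL cells carrying doxycycline-inducible green luciferase fused to IkappaBalpha plus unfused red luciferase were exposed to compounds (up to 46 uM) for 4 hrs at 37C. Activity came from the overlap-corrected green/red luminescence ratio.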", "values": [
      {"smiles": "CCOC(=O)c1c(NC(N)=O)sc(C)c1C", "AC50": "6.51 µM [falling, partial curve, poor fit]"},
      {"smiles": "O=C(Nc1nncs1)c1cccnc1Cl", "AC50": "20.6 µM [rising, partial curve, poor fit]"},
      {"smiles": "Cc1nc(-c2ccc(Cl)cc2)sc1C1(C)CC(c2cccc([N+](=O)[O-])c2)=NO1", "note": "(stereo not drawn)", "AC50": "15.8 µM [rising, partial curve]"},
      {"smiles": "O=C(Nc1ccccc1C(=O)O)c1ccccc1", "AC50": "2.31 µM [falling, full curve]"},
      {"smiles": "CCCCn1c(N)c(N(CC(C)C)C(=O)Cn2c(=O)cnc3ccccc32)c(=O)[nH]c1=O", "AC50": "14.6 µM [rising, partial curve, poor fit]"},
      {"smiles": "C/C=C/C=C\\C(=O)Nc1cccc(C2=NOC3(C2)C[C@@H](C(N)=O)N(C(=O)/C(C)=C/C)C3)c1", "note": "(stereo partly drawn)", "AC50": "7.08 µM [falling, partial curve, poor fit]"},
      {"smiles": "CCn1ccnc1CN1CCc2c([nH]c3ccccc23)C1CC(C)C", "note": "(stereo not drawn)", "AC50": "35.5 µM [falling, single point]"},
      {"smiles": "COc1ccc(C2CC(=O)C(C=NCCO)=C(O)C2)cc1OC", "note": "(stereo not drawn)", "AC50": "0.103 µM [falling, full curve, poor fit]"},
      {"smiles": "COC(=O)Cc1c(C)nc2nc(-c3ccc(Cl)cc3)[nH]n2c1=O", "AC50": "2.59 µM [falling, full curve]"},
      {"smiles": "Cc1nc(NC(=O)c2csc3ccccc23)sc1C", "AC50": "10 µM [falling, partial curve, poor fit]"},
      {"smiles": "COc1ccc(-n2c(SCC(=O)Nc3cc(C)on3)nc3c([nH]c4ccccc43)c2=O)cc1", "AC50": "0.794 µM [rising, full curve, poor fit]"},
      {"smiles": "COc1cc(NC(=O)CN(c2ccc(C)cc2)S(=O)(=O)c2c(C)n[nH]c2C)cc(OC)c1", "AC50": "10 µM [falling, partial curve]"},
      {"smiles": "COC(=O)c1ccccc1NC(=O)C1CCCC1", "AC50": "15.8 µM [rising, single point]"},
      {"smiles": "COc1ccc(CCNC(=O)C2CCC(=O)N(CC3CCCCC3)C2)cc1", "note": "(stereo not drawn)", "AC50": "7.94 µM [falling, partial curve, poor fit]"},
      {"smiles": "Cc1ccc(S(=O)(=O)CC(=O)NC2CC2)cc1", "AC50": "29.1 µM [falling, single point]"},
      {"smiles": "CCCCOC(=O)c1ccc(NC(=O)c2cnccn2)cc1", "AC50": "13 µM [rising, partial curve, poor fit]"},
      {"smiles": "COc1ccc(C2Nc3ccccc3C(=O)N2NC(C)=O)c(OC)c1", "note": "(stereo not drawn)", "AC50": "1.58 µM [rising, full curve]"},
      {"smiles": "Cc1ccc(C(=O)NCC(=O)NCCCc2ccccc2)s1", "AC50": "0.708 µM [falling, full curve, poor fit]"}
    ]}
  ]
}
